B1: PPM1A (protein, UniProt P35813 1-382)
chain: MGAFLDKPKMEKHNAQGQGNGLRYGLSSMQGWRVEMEDAHTAVIGLPSGLESWSFFAVYDGHAGSQVAKYCCEHLLDHITNNQDFKGSAGAPSVENVKNGIRTGFLEIDEHMRVMSEKKHGADRSGSTAVGVLISPQHTYFINCGDSRGLLCRNRKVHFFTQDHKPSNPLEKERIQNAGGSVMIQRVNGSLAVSRALGDFDYKCVHGKGPTEQLVSPEPEVHDIERSEEDDQFIILACDGIWDVMGNEELCDFVRSRLEVTDDLEKVCNEVVDTCLYKGSRDNMSVILICFPNAPKVSPEAVKKEAELDKYLECRVEEIIKKQGEGVPDLVHVMRTLASENIPSLPPGGELASKRNVIEAVYNRLNPYKNDDTDSTSTDDMW
B2: HNF4α, endogenous in MHCC-L cells (protein, UniProt P41235-1 1-474)
chain: MRLSKTLVDMDMADYSAALDPAYTTLEFENVQVLTMGNDTSPSEGTNLNAPNSLGVSALCAICGDRATGKHYGASSCDGCKGFFRRSVRKNHMYSCRFSRQCVVDKDKRNQCRYCRLKKCFRAGMKKEAVQNERDRISTRRSSYEDSSLPSINALLQAEVLSRQITSPVSGINGDIRAKKIASIADVCESMKEQLLVLVEWAKYIPAFCELPLDDQVALLRAHAGEHLLLGATKRSMVFKDVLLLGNDYIVPRHCPELAEMSRVSIRILDELVLPFQELQIDDNEYAYLKAIIFFDPDAKGLSDPGKIKRLRSQVQVSLEDYINDRQYDSRGRFGELLLLLPTLQSITWQMIEQIQFIKLFGMAKIDNLLQEMLLGGSPSDAPHAHHPLHPHLMQEHMGTNVIVANTMPTHLSNGQMCEWPRPRGQAATPETPQPSPPGGSGSEPYKLLPGAVATIVKPLSAIPQPTITKQEVI

Protein sequences, listed by entry. Tags and fused reporters are not part of them.
UniProt Q96LD4: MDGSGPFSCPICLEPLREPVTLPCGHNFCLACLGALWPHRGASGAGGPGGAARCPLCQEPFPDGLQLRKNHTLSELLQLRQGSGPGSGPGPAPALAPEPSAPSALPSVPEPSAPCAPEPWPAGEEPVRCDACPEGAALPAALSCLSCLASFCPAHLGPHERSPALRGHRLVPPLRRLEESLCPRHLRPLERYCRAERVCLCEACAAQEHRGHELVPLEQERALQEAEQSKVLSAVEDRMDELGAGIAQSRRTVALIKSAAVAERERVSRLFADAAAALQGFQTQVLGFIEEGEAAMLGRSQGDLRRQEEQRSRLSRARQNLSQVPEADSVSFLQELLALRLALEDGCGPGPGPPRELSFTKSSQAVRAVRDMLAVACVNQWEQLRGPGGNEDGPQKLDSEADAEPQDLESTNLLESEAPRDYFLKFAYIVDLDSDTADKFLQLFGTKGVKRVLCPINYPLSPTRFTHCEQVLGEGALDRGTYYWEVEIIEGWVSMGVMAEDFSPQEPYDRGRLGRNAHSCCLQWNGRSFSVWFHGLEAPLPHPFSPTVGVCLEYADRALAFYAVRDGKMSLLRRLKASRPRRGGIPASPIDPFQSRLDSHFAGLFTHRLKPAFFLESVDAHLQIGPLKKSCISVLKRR
UniProt P19474: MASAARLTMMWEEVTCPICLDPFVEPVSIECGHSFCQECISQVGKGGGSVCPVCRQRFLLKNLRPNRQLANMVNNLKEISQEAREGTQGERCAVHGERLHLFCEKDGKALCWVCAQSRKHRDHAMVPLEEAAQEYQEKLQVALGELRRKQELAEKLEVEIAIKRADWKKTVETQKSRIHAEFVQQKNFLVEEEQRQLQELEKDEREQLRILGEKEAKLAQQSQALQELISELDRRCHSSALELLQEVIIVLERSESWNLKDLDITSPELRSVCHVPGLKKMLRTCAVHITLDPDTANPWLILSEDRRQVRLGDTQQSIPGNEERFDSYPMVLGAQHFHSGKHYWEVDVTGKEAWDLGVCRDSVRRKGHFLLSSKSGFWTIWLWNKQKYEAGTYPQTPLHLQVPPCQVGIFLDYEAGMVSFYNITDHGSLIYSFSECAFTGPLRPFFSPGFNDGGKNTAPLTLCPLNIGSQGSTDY

No constants are given. Whether binding was seen depends on the method and setting. In cells and extracts the contact can be indirect. These calls come from enrichment with a bait or labelling near it, and not all partners need be listed.

The target in the assay is Flag-tagged TRIM47 (tripartite motif 47), full length (amino acids 1–638) (human) (UniProt Q96LD4). As to the kind of experiment: affinity purification with mass spectrometry; MHCC-L cells transfected with Flag-TRIM47 or Flag-vector, MG132 for 6 h, lysed in IP buffer, anti-Flag beads at 4 °C overnight, washed (20 mmol/L Tris-HCl pH 8.0, 150 mmol/L NaCl, 0.5% NP40, 0.5% Triton X-100, 10% glycerol), trypsin digest, Q Exactive HF-X.
Take TRIM21 (from UniProt P19474 1-475): the binding entry is on record as “binds”.
Take B1: the binding entry was “binds”.
The entry for B2 is “binds”.

For the origin of these results see paper PMC12891897, “Blocking TRIM47-mediated HNF4α degradation suppresses hepatocellular carcinoma progression” (Acta Pharmaceutica Sinica. B, 2025).
